{"source": "patent US6492137B1", "about": "“Response element compositions and assays employing same” (The Salk Institute for Biological Studies, priority 1989, dated 2002)", "key": {"[1]": {"molecular_target": "T1, Retinoic acid receptor alpha (RARα), in CV-1 cells (Homo sapiens) (UniProt P10276)", "T1 sequence (looked up, limits assumed)": "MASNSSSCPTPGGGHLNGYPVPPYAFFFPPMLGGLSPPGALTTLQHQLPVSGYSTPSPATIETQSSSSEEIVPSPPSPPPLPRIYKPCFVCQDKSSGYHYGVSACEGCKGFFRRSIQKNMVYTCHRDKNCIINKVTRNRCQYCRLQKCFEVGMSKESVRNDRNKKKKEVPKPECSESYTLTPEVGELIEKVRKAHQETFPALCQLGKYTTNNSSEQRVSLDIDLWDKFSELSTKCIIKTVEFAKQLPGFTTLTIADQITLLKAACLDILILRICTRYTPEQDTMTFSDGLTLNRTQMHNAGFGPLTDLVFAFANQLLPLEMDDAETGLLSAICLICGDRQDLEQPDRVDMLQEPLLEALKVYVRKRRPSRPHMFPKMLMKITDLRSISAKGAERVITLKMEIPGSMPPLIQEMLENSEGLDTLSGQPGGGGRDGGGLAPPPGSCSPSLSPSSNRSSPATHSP", "experiment": "activity in cells", "settings": "protein in cells, protein details: RSV or pRS expression vector, only the site is given"}, "[2]": {"molecular_target": "T2, Thyroid hormone receptor beta (TRβ) (Homo sapiens) (UniProt P10828)", "T2 sequence (looked up, limits assumed)": "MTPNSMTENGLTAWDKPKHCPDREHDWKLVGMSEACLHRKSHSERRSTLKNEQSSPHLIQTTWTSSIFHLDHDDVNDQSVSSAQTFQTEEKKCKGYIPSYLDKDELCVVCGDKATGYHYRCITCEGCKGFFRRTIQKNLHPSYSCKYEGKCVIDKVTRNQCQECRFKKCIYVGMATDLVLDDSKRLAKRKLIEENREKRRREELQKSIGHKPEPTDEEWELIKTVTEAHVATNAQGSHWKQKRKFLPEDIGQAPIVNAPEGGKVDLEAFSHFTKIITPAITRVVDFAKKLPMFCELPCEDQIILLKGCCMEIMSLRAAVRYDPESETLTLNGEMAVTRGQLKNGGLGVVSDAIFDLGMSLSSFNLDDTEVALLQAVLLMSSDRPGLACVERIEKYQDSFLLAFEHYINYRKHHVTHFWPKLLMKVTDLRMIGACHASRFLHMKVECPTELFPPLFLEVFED", "experiment": "EMSA", "settings": "protein in a lysate after overexpression, protein details: pCMX-hTRβ transfected COS cell extract, label: 32P"}, "[3]": {"molecular_target": "T3, Retinoic acid receptor alpha (RARα) (Homo sapiens) (UniProt P10276)", "T3 sequence (looked up, limits assumed)": "T1 sequence (looked up, limits assumed)", "experiment": "EMSA", "settings": "protein in a lysate after overexpression, protein details: pCMX-hRARα transfected COS cell extract, label: 32P"}, "[4]": {"molecular_target": "T4, Thyroid hormone receptor beta (TRβ), in CV-1 cells (Homo sapiens) (UniProt P10828)", "T4 sequence (looked up, limits assumed)": "T2 sequence (looked up, limits assumed)", "experiment": "activity in cells", "settings": "protein in cells, protein details: pRShTRβ, only the site is given"}, "[5]": {"molecular_target": "T2, Thyroid hormone receptor beta (TRβ) (Homo sapiens)", "experiment": "competition with a labelled probe", "settings": "protein in a lysate after overexpression, protein details: pCMX-hTRβ transfected COS cell extract"}, "[6]": {"molecular_target": "T3, Retinoic acid receptor alpha (RARα) (Homo sapiens)", "experiment": "competition with a labelled probe", "settings": "protein in a lysate after overexpression, protein details: pCMX-hRARα transfected COS cell extract"}, "[7]": {"tested_on": "F9 stem cell endogenous βRARE-binding activity (RAR-like) (Mus musculus)", "experiment": "EMSA", "settings": "pattern identical to RARα-transfected COS extract; protein in an extract; protein details: F9 teratocarcinoma whole cell extract; label: 32P"}, "[8]": {"molecular_target": "T5, Vitamin D receptor (VDR), in CV-1 cells (Homo sapiens) (UniProt P11473)", "T5 sequence (looked up, limits assumed)": "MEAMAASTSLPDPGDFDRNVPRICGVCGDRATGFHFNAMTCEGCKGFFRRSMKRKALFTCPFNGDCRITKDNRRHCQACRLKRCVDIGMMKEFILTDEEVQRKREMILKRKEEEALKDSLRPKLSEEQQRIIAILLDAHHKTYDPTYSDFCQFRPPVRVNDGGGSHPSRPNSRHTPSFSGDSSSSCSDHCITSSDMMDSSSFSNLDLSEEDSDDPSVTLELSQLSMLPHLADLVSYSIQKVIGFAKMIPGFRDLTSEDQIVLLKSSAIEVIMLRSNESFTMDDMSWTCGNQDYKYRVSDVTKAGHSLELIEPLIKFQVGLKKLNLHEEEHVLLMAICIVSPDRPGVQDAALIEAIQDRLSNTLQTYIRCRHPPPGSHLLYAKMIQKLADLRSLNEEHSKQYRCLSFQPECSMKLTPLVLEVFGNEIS", "experiment": "activity in cells", "settings": "completely inactive, protein in cells, protein details: pRShVDR, only the site is given"}, "[9]": {"molecular_target": "T6, Vitamin D receptor (VDR) (Homo sapiens) (UniProt P11473)", "T6 sequence (looked up, limits assumed)": "T5 sequence (looked up, limits assumed)", "experiment": "EMSA", "settings": "COS extract; protein in a lysate after overexpression; protein details: pCMX-hVDR transfected COS cell extract; label: 32P"}, "[10]": {"settings": "half site, functional only with cotransfected RAR, variant of βRE1"}, "[11]": {"settings": "described as high affinity site"}, "[12]": {"settings": "50-fold excess did not compete MHC-N probe, variant of MHC-N"}, "[13]": {"settings": "poor competitor, variant of MHC-N"}, "[14]": {"settings": "clear activity, attributed to receptor overexpression"}}, "note": "For some assays here: A negative result means that nothing was seen under these conditions. For some assays here: Where a protein sequence is shown, tags need not be part of it. For some assays here: Weaker means in comparison with the reference protein, sequence or condition of that experiment. For some assays here: Where cells or extracts were used, other partners may take part. For some assays here: The exact form of at least one protein or probe is not confirmed."}
{"sequence": "AAGCTTAAGGGTTCACCGAGCTT (double strand) [βRE5]", "values": [{"measurement": "activity on this sequence", "setting": "[1]; [10]", "result": "active"}]}
{"sequence": "AAGCTTCGAAAGTTCACTCGCATAGCTT (double strand) [βRE4]", "values": [{"measurement": "activity on this sequence", "setting": "[1]; [10]", "result": "active"}]}
{"sequence": "AGCTAGGTAAGATCAGGTAAGTAGCT (double strand) [rGH21]", "values": [{"measurement": "binding result", "setting": "[2]; binds very poorly", "result": "binds more weakly"}, {"measurement": "binding result", "setting": "[3]; no appreciable binding", "result": "no binding"}, {"measurement": "activity on this sequence", "setting": "[4]; no T3 induction", "result": "not active"}]}
{"sequence": "AGCTCAGGGTCATTTCAGGTCCTTGAAGCT (double strand) [MLV-LTR TRE]", "values": [{"measurement": "binding result", "setting": "[2]; [11]", "result": "binds"}, {"measurement": "binding result", "setting": "[3]; no appreciable binding", "result": "no binding"}, {"measurement": "activity on this sequence", "setting": "[4]; T3 inducible", "result": "active"}]}
{"sequence": "AGCTCCTTGGCTCTGGAGGTGACAGGAGGACAGCAGCT (double strand) [MHC-L]", "values": [{"measurement": "activity on this sequence", "setting": "[4]; T3 responsive", "result": "active"}]}
{"sequence": "AGCTCTCTGGAGGTGACAGGAAGCT (double strand) [MHC-S]", "values": [{"measurement": "activity on this sequence", "setting": "[4]; no T3 response", "result": "not active"}]}
{"sequence": "AGCTGGAAATGACAGGAGGACAGCAAGCT (double strand) [M1]", "values": [{"measurement": "binding result", "setting": "[5]; [12]", "result": "no binding"}, {"measurement": "activity on this sequence", "setting": "[4]; silent to T3, variant of MHC-N", "result": "not active"}]}
{"sequence": "AGCTGGAGGTGAACAGGAGGACAGCAAGCT (double strand) [MHC+1]", "values": [{"measurement": "binding result", "setting": "[5]; [13]", "result": "binds more weakly"}, {"measurement": "binding result", "setting": "[6]; much weaker affinity than MHC-R, variant of MHC-N", "result": "binds more weakly"}]}
{"sequence": "AGCTGGAGGTGAACAGGAGGTCAGCAAGCT (double strand) [MHC-R]", "values": [{"measurement": "binding result", "setting": "[5]; [13]", "result": "binds more weakly"}, {"measurement": "binding result", "setting": "[6]; effective competitor of βRARE probe, comparable to TREp, variant of MHC-N", "result": "binds"}, {"measurement": "activity on this sequence (fold induction)", "setting": "[4]; T3 100 nM, CV-1, variant of MHC-N, counted as no effect", "result": 1.3}]}
{"sequence": "AGCTGGAGGTGACAGGAAAACAGCAAGCT (double strand) [M3]", "values": [{"measurement": "binding result", "setting": "[5]; [12]", "result": "no binding"}, {"measurement": "activity on this sequence", "setting": "[4]; silent to T3, variant of MHC-N", "result": "not active"}]}
{"sequence": "AGCTGGAGGTGACAGGAGGACAGCAAGCT (double strand) [MHC-N]", "values": [{"measurement": "binding result", "setting": "[2]; COS extract, poly dI/dC, 80 mM KCl, room temperature, self-competes at 50-fold excess", "result": "binds"}, {"measurement": "binding result", "setting": "[3]", "result": "no binding"}, {"measurement": "activity on this sequence", "setting": "[1]; no RA response", "result": "not active"}]}
{"sequence": "AGCTGGAGGTGACAGGAGGTCAGCAAGCT (double strand) [MHC-T]", "values": [{"measurement": "binding result", "setting": "[5]; notably better competitor than wild type, variant of MHC-N", "result": "binds"}, {"measurement": "binding result", "setting": "[6]; fails to compete efficiently, much weaker affinity than MHC-R, variant of MHC-N", "result": "binds more weakly"}]}
{"sequence": "AGCTGGAGGTGACGAAAGGACAGCAAGCT (double strand) [M2]", "values": [{"measurement": "binding result", "setting": "[5]; 50-fold excess competed MHC-N probe, variant of MHC-N", "result": "binds"}, {"measurement": "activity on this sequence", "setting": "[4]; T3 response retained though impaired, variant of MHC-N", "result": "less active"}]}
{"sequence": "AGCTGGGGTTAGGGGAGGACAGTAAGCT (double strand) [malic enzyme TRE]", "values": [{"measurement": "binding result", "setting": "[2]; [11]", "result": "binds"}, {"measurement": "binding result", "setting": "[3]; no appreciable binding", "result": "no binding"}, {"measurement": "activity on this sequence", "setting": "[4]; T3 responsive", "result": "active"}]}
{"sequence": "AGCTTAAGGGTTCACCGAAAGTTCACTCGCATAGCT (double strand) [βRARE]", "values": [{"measurement": "binding result", "setting": "[7]", "result": "binds"}, {"measurement": "binding result", "setting": "[2]; weak yet detectable over background, also poor competitor (p130)", "result": "binds more weakly"}, {"measurement": "binding result", "setting": "[3]; dramatically enhanced signal", "result": "binds"}]}
{"sequence": "AGCTTCAGAACAAGGAGAACAGAGAGCT (double strand) [GDR-3]", "values": [{"measurement": "activity on this sequence", "setting": "[8]; variant of DR-3", "result": "not active"}, {"measurement": "activity on this sequence", "setting": "[4]; completely inactive, variant of DR-3", "result": "not active"}]}
{"sequence": "AGCTTCAGAACACAGGAGAACAGAGAGCT (double strand) [GDR-4]", "values": [{"measurement": "activity on this sequence", "setting": "[8]; variant of DR-4", "result": "not active"}, {"measurement": "activity on this sequence", "setting": "[4]; completely inactive, variant of DR-4", "result": "not active"}]}
{"sequence": "AGCTTCAGGTCAAGGAGGTCAGAGAGCT (double strand) [DR-3]", "values": [{"measurement": "binding result", "setting": "[9]", "result": "binds"}, {"measurement": "activity on this sequence", "setting": "[1]; [14]", "result": "less active"}]}
{"sequence": "AGCTTCAGGTCACAGGAGGTCAGAGAGCT (double strand) [DR-4]", "values": [{"measurement": "binding result", "setting": "[2]; COS extract", "result": "binds"}, {"measurement": "activity on this sequence", "setting": "[1]; [14]", "result": "less active"}]}
{"sequence": "AGCTTCAGGTCACCAGGAGGTCAGAGAGCT (double strand) [DR-5]", "values": [{"measurement": "binding result", "setting": "[3]; COS extract", "result": "binds"}]}
{"sequence": "AGCTTCAGGTCATGACCTGAGAGCT (double strand) [TREp]", "values": [{"measurement": "binding result", "setting": "[5]; efficient competitor", "result": "binds"}, {"measurement": "binding result", "setting": "[6]; effective competitor of βRARE probe", "result": "binds"}]}
{"sequence": "AGCTTGAGGTGACAGGAGGACAGCAGCT (double strand) [MHC-D]", "values": [{"measurement": "activity on this sequence", "setting": "[4]; full T3 response", "result": "active"}]}
